Here are results for 41 compounds from PubChem BioAssay AID493014 (National Center for Advancing Translational Sciences (NCATS), 2011).

The assay in a line: qHTS Assay to Find Inhibitors of Chronic Active B-Cell Receptor Signaling. The following applies: ABC-DLBCL IkBa-CBG/CBR reporter, luminescence ratio (green luciferase fused to IkBa over red control in TMD8 lymphoma cells), 4 h. An outline of the steps:
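Compounds up to 46 uM were incubated four hours with TMD8 cells whose green CBG68 luciferase is fused to IkappaBalpha; red CBR luminescence normalised the signal, and concentration-effect curves were fitted to fusion, red and ratio data.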
On the technique in general: qHTS replaces the single test concentration by a dilution series.

[1] abbreviates: measured here: CBR red luminescence, cell number.
[2] abbreviates: measured here: IkBa-CBG green luminescence.

Some of the results follow. The main result of the screen is listed elsewhere. These columns were measured beside it and carry no call. Most of these compounds were active or inconclusive in the main read-out, so they are no random draw. The note in brackets gives the kind of curve behind each potency; many fits are weak.

Regarding `O=C(N/N=C/c1c(Cl)cccc1Cl)c1n[nH]c2c1CCCC2`, the AC50 under setting [1] was 18.4 µM [falling, single point].
Still for that read-out and setting: to `Cc1ccc(S(=O)(=O)CC(C)(O)CS(=O)(=O)c2ccc(C)cc2)cc1` belongs 35.5 µM [rising, single point]; to `O=C(NCc1ccco1)c1cc(-c2ccncc2)nc2ccccc12`, 35.5 µM [falling, single point].
On the same count and under the same terms, to `Cc1cccc(OCC(=O)Nc2nccs2)c1C` belongs 10 µM [falling, partial curve, poor fit]; to `O=C(COc1ccc(F)cc1)NCC1(N2CCOCC2)CCCCC1`, 29.1 µM [rising, partial curve, poor fit]; to `Cc1cnc(CN2CCc3c([nH]c4ccccc34)C2CC(C)C)[nH]1` (stereo unspecified), 17.8 µM [falling, single point].
Still for that read-out and setting: to `Cc1cc([N+](=O)[O-])nn1Cc1ccccc1F` belongs 0.112 µM [rising, full curve, poor fit].
Turning to `COc1ccc(CC2(CO)CCN(Cc3cccc(OC)c3OC)CC2)cc1`, under setting [1], the AC50 was 8.91 µM [rising, partial curve, poor fit].
Turning to `COc1ccccc1CNC(=O)CSc1ccc(C)cc1`, the AC50 under setting [2] is 29.1 µM [falling, partial curve, poor fit].
As for `N#C/C(=C\c1cn[nH]c1-c1ccc(Cl)cc1)C(=O)NCc1ccccc1`, under setting [1], the concentration at half-maximal activity (AC50) is 3.66 µM [rising, single point].
In the case of `COc1cccc(/C=C/C(=O)N2CCN(c3ccccn3)CC2)c1`, the AC50 under setting [1] was 8.91 µM [falling, partial curve].
On the same count and under the same terms, to `O=C(/C=C/NNC(=O)c1ccccc1)c1ccc(Br)cc1` belongs 7.31 µM [falling, partial curve]; to `COc1ccc(C(CC(=O)Nc2nccs2)n2cccc2)cc1` (stereo unspecified), 15.8 µM [falling, single point].
On the same count and under the same terms, the value for `CN(C)CCNC(=O)c1ccc(COc2ccc(Cl)cc2Cl)cc1` was 25.1 µM [falling, single point].
Same read-out and setting: to `O=C(NNc1nc2c(F)cccc2s1)c1ccccc1` belongs 15.8 µM [falling, single point]; to `CC(C)Cc1nnc(NC(=O)Cc2ccc([N+](=O)[O-])cc2)s1`, 7.31 µM [rising, partial curve].
Regarding `CC(=O)Nc1ccc2nc(SCC(=O)Nc3ccc(N4CCOCC4)c(Cl)c3)sc2c1`, the AC50 under setting [1] was 11.2 µM [falling, partial curve].
Regarding `CCc1cccc(CC)c1NC(=O)CSc1nc2ccc(N3C(=O)C4C(C3=O)[C@H]3C=C[C@@H]4C3)cc2s1` (stereo partly specified), under setting [1], the AC50 was 0.82 µM [falling, full curve, poor fit].
On the same count and under the same terms, to `CN(C)C1N(C(=O)c2ccccc2)N=C2c3ccccc3S(=O)(=O)N21` (stereo unspecified) belongs 35.5 µM [rising, single point].
Still for that read-out and setting: the value for `CCOC(=O)c1cc(CC)sc1NC(=O)Cc1ccccc1` was 16.4 µM [rising, single point]; that for `O=C(Nc1ccc(F)c(Cl)c1)Nc1csc2ccccc12` was 35.5 µM [falling, single point].
Still for that read-out and setting: the value for `Cc1cc(N2CCCCC2)ccc1[N+](=O)[O-]` was 20.6 µM [rising, single point].
With `CCOc1cccc(-c2nnc3sc(-c4cc(OC)c(OC)cc4OC)nn23)c1`, the AC50 under setting [1] is 35.5 µM [rising, single point].
Regarding `CCOC(=O)c1cnc(SC)nc1Sc1cc(Cl)ccc1Cl`, under setting [1], the AC50 is 6.31 µM [rising, single point].
Still for that read-out and setting: to `Clc1ccc(N2CCN(/N=C/c3ccncc3)CC2)cc1` belongs 14.1 µM [rising, partial curve, poor fit]; to `CCOc1ccccc1NC(=O)Nc1ccsc1C(=O)OC`, 5.01 µM [falling, partial curve].
As for `C/C(=N/NS(=O)(=O)c1ccc(Cl)cc1)c1cccc(NC(=O)c2ccncc2)c1`, under setting [2], the AC50 was 12.6 µM [falling, partial curve, poor fit].
With `CN(Cc1ccccc1)C(=O)COc1ccc(N(C)S(=O)(=O)c2ccc(F)cc2)cc1`, the AC50 under setting [1] is 25.1 µM [falling, single point].
Still for that read-out and setting: the value for `CCC(CC)C(=O)Nc1cccc(C(=O)Nc2nnc(C)s2)c1` was 20 µM [falling, partial curve, poor fit].
Still for that read-out and setting: to `O=C(CN1CC[C@@]2(O)CCCC[C@H]2[C@@H]1c1ccc(F)cc1)NCc1ccco1` belongs 4.47 µM [falling, partial curve, poor fit].
Still for that read-out and setting: to `Cc1cccc(NC(=O)CN(C2=NC3CS(=O)(=O)CC3S2)c2ccccc2F)c1` (stereo unspecified) belongs 35.5 µM [falling, single point]; to `CCOc1ccccc1Nc1nnc(SCC(=O)Nc2cccc(S(=O)(=O)NC3=NCCCCC3)c2)s1`, 18.4 µM [falling, single point]; to `CCOC(=O)c1cnn(Cc2cccc(Cl)c2)c1C`, 0.1 µM [falling, full curve, poor fit].
`CN(C)c1ccc(/C=C/C#N)cc1`: the AC50 under setting [1] is 12.6 µM [rising, single point].
The same measure, in the same setting: to `CCOC(=O)c1c(NC(=O)COc2cccc3c2CCN(C)C3=O)sc2c1CCC2` belongs 2.59 µM [falling, full curve, poor fit]; to `CN(C)/N=C/C=C1\CC/C(=C\c2ccc(Br)cc2)C1=O`, 20.6 µM [falling, partial curve, poor fit].
Still for that read-out and setting: the value for `O=C(Nc1ccc(Cl)c([N+](=O)[O-])c1)Nc1nc2ccccc2s1` was 4.47 µM [rising, partial curve, poor fit].
On the same count and under the same terms, to `O=C(O)c1c(C(=O)N2N=C3/C(=C/c4ccccc4)CCCC3C2c2ccccc2)cccc1[N+](=O)[O-]` (stereo unspecified) belongs 7.08 µM [falling, full curve, poor fit]; to `COC(=O)CNC(=O)CN1C(=O)N(c2ccc(Cl)cc2)C(N(O)C(=O)Nc2ccc(Cl)cc2)C1(C)C` (stereo unspecified), 6.31 µM [rising, single point].
For `O=C(N/N=C/c1ccc2c(c1)OCO2)c1ccn(Cc2ccc(Cl)cc2)n1`, under setting [1], the AC50 was 1.58 µM [falling, full curve].
Take `CN1/C(=C\C(=O)CN2C(=O)NC3(CCCCCC3)C2=O)C(C)(C)c2ccccc21`: the AC50 under setting [1] was 0.13 µM [rising, full curve, poor fit].

By AC50 is commonly meant the concentration at which the activity in the assay is half-maximal.
